Article PMC10163288
Some of the results follow.

B1: il2ra_site2_3nfp_normal_mot_HHH_b2_07498_000000293_0001_1_14_H_._HHH_b1_02082_af2_0001_0000600036_0000001_0 (protein)
chain: SSSSDEEEEELKELLKRVEELIKNGDPYEALELLDEVHEIARELNDREAIRLVLELYEELLSSSS
B2: il2ra_site2_2erj_sap_13_mot_ca9eff2b9947dfa32b90907aa01746fa_0001_000000002_0001_18_32_H_._HHH_b2_03173_0001_0000300020_0000001_1_0001 (protein)
chain: SSSSDDELQEEADELFRRAKELFKEGDRERVEELLEIVRELLEEYGDPLLRAVFRIIRFALSSSS
B3: il2ra_site2_3nfp_sap_15_mot_HHH_b2_00102_000000046_0001_18_35_H_._HHH_b1_04540_af2_0001_0000400024_0000001_0_0001_af2pred_0001_1_af2pred_swapped (protein)
chain: SSSSSEEEEEVEKLLKEAEELLKRGDPEEAERVVLEAFKIARELNNEELLELIFRLFEKILSSSS
B4: il2ra_site1_3nfp_sap_13_mot_d8099cd8ef6a59b9c03de2010570d688_0001_af2_000000259_0001_37_51_H_._HHH_b1_03767_0001_0000400019_0000001_0_0001_af2pred_0001_af2pred_ … (protein)
chain: SSSSSEEEVRRVLEEAREAFEEGDQKRVDELIRLAARLASKNNDEEALELVEEFMREIAKKSSSS
B5: il2ra_site1_1z92_sap_12_mot_e933875d0a4b1ebfe8e667f01481c16a_0001_1_af2_000000278_0001_14_28_H_._d36a458fe49fd8718958d6305eabf003_0001_0001_0000100020_0000001_0 … (protein)
chain: GPEEVLEELKETGDPVLLTFVSFFERLLKMGASPEMIVEHLKRAAKLMGNPNLEEAIRLFEELLR
B6: il2ra_site1_1z92_sap_14_mot_HHH_b1_04488_000000139_0001_42_58_H_._HHH_b2_01301_af2_0001_0000200016_0000001_1_0001 (protein)
chain: DIERAVEQLTEFIAKAAGVPSVEVTSKDGTFTLHVEGDDEAAERAERLFEKFAEKLGLPFSVEKH
B7: il2ra_site2_3nfp_normal_mot_HHH_b2_03679_000000086_0001_41_56_H_._HHH_b2_03760_0001_0000100002_0000001_0 (protein)
chain: SSSSSELEEYLEAAVLLLEEALKEGDEEIAEKLLELVLKAAEDANDDEIERRLEEIEKELSSSSS
B8: il2ra_site1_2b5i_sap_8_mot_HHH_b1_04517_000000040_0001_39_52_H_._HHH_b2_05314_0001_0000400027_0000001_0_0001_af2pred_dldesign_0_af2pred (protein)
chain: SSSDPKALAETAAAIVEELEEKYNLNLEQSAVLERLAVELVWKGVSPEEIRRRLEALAKELSSSS
B9: il2ra_site1_3nfp_normal_mot_HHH_b1_01683_000000180_0001_19_35_H_._HHH_b2_05362_0001_0000600031_0000001_0 (protein)
chain: SSSSSSEEKEELLRRLFRLAKEAKSEEELKKILEEAEELAEELGDEKLLRDIEIWLKLLESSSSS
B10: il2ra_site2_3nfp_normal_mot_HHH_b1_07095_000000265_0001_1_20_H_._HHH_b2_06641_0001_0000100001_0000001_1 (protein)
chain: SSSSDVEERVQELLEEAERLLEEGNPEEARKLVQEAAHLAYEARNFELFALVNEVLAKIVLSSSS
B11: il2ra_site1_2b5i_sap_14_mot_HHH_eva_0271_af2_000000019_0001_1_17_H_._b0be08dbeb19038e97ce33ab5425b229_0001_af2_0001_0000100006_0000001_0_0001_af2pred_0001_af2pr … (protein)
chain: SSSDELRELDRYLVRVIYELRVRLGLSSEQARELARLAAELAEEGISEEEAEQILRKLAEELSSS
B12: il2ra_site1_2b5i_normal_mot_HHH_b1_06258_af2_000000112_0001_42_56_H_._HHH_b1_05797_0001_0000200011_0000001_0 (protein)
chain: SSSSDEEFEEAAELFLEASRAYKKGNPEEARELLERALEILERGGDPLAEQVEFMLRRLRSSSSS
B13: il2ra_site1_3nfp_sap_18_mot_HHH_b1_05931_000000015_0001_42_57_H_._HHH_b1_04798_af2_0001_0000300009_0000001_0_0001_af2pred_0001_af2pred_1_swapped (protein)
chain: SLEEALEFLEQLAEELNDPALKALVRQLEKLVRNGNEELAKRAVEYFLKRSGSPILEEVLKLLRK
B14: il2ra_site2_3nfp_normal_mot_3824cfb560b92ee870597236e80092b0_0001_000000220_0001_16_33_H_._HHH_b2_01894_0001_0000300040_0000001_1 (protein)
chain: SSSSSSDTEERVEELLEEAEKIEDPEEARRVVAEAALIAAEARNFELFALVIELLAEIASSSSSS
B15: il2ra_site2_3nfp_normal_mot_HHH_b1_05437_000000005_0001_40_57_H_._HHH_b2_02858_0001_0000400023_0000001_0 (protein)
chain: SSSSDEEELRRRVEELLEEAEEIDDPEERRKVLAEATNLAYEGRDFELFALVAEVLFKLGSSSSS
B16: il2ra_site2_3nfp_normal_mot_ems_p1-15H-GBL-16H-GBL-14H_0089_0001_0001_0001_af2_000000072_0001_19_33_H_._HHH_b1_02393_0001_0000100012_0000001_0_af2pred_0001_af2p … (protein)
chain: SSSSSDEEEREEVEELLEEAKHIEDEFELFAVLADALAIAIELNDPELERLVREVIAKLQSSSSS
B17: il2ra_site2_3nfp_sap_28_mot_HHH_b1_06589_000000230_0001_37_50_H_._HHH_b2_02307_af2_0001_0000200010_0000001_0_0001_af2pred_0001_af2pred (protein)
chain: SSSSDAHEEIARLLQRAEELYENGNPEEARELIKEAEELAEENNDEHAEFAVRAELILLKLSSSS
B18: il2ra_site1_1z92_sap_13_mot_HHH_b1_06381_000000058_0001_42_59_H_._HHH_b1_06884_0001_0000100002_0000001_0_0001_af2pred_0001_af2pred (protein)
chain: SSSSSSDEAFEEAAELFEEAAKLRDPEEVRRLLEEALELAEEAGDEVIARDIRQYLERLSSSSSS
B19: il2ra_site1_3nfp_sap_6_mot_119b7766384adbe86006a62bce89dba1_0001_af2_000000092_0001_18_32_H_._7316f35285ac56439be3f38723dbf1df_0001_1_0001_0000200007_0000001_0_ … (protein)
chain: SAIEVFVKRLARKGYPPEEIAERLFEIAEKTGTEEELERELEKLVKKTGDPTLKRILEVLEELVR

Target: il2ra, P01589
Experiment: yeast display titration

Apparent Kd, inactive:
B1 no binding seen
B2 no binding seen
B3 no binding seen
B4 no binding seen
B5 no binding seen
B6 no binding seen
B7 no binding seen
B8 no binding seen
B9 no binding seen
B10 no binding seen
B11 no binding seen
B12 no binding seen
B13 no binding seen
B14 no binding seen
B15 no binding seen
B16 no binding seen
B17 no binding seen
B18 no binding seen
B19 no binding seen

Quoted from the entries so far (4 entries):
Apparent Kd, inactive:
B11 no binding seen
B12 no binding seen
B13 no binding seen
B14 no binding seen
